Binding screen against folded nucleic acids

Targets (5′ to 3′):
TPP: TPP riboswitch RNA three-way junction, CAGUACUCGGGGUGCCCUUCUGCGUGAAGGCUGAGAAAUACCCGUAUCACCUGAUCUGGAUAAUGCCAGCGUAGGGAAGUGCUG. Hit rate about 0.7% of about 24,000 compounds.
PreQ1: PreQ1 riboswitch RNA pseudoknot, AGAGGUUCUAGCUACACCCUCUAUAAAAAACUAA. From B. subtilis. Hit rate about 0.7% of about 24,000 compounds.
SAM-II: SAM-II riboswitch RNA pseudoknot, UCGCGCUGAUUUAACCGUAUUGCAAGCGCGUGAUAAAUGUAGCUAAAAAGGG. Hit rate about 1% of about 21,000 compounds.

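Each compound is printed as two spots on a slide made to bind it covalently, so it has no test concentration; the read-out is fluorescence of the bound, labelled oligonucleotide. For the PreQ1, TPP and SAM-II riboswitches the laboratory earlier reported (doi:10.1038/s41467-019-09493-3) 1 µM RNA, 2 h, and a rule that included a mean Z-score above 3 (spot signal-to-noise against the whole library), a score well above that on a control array, and duplicate spots agreeing (coefficient of variation under 100). The data file gives only the calls; its cut-offs may differ, and compounds hitting several targets are kept. The calls come from the array alone, and fixing a compound to the slide can hide its binding.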
A compound is marked 1 if it was called a hit and 0 if it was screened but was not.
The compounds are a random part of those screened.
A dash means that no call is listed here.

compound	TPP	PreQ1	SAM-II
CS(=O)(=O)CCC(=O)N1C[C@H](CO)C[C@H](CN2CCCC2)C1	0	0	0
CN1CCc2c(c3ccccc3n2Cc2ccc(C(=O)NO)cc2)C1	0	0	0
CCOC(=O)c1ccc(C)c(N)c1	0	0	0
COc1ccc(-c2c(C)nn3c(N)c(C#N)cnc23)cc1OC	0	0	0
C=C1C[C@@]2(O)O[C@@]3(C[C@H]2C(C)C)[C@H](C)CC[C@H]13	0	0	0
CN(C)c1ccc(CNc2ccc3c(c2)ncn3-c2ccccc2)cc1	0	0	0
C=CCN1C(=O)C2(C(C(=O)OCC)=C(N)OC(c3ccccc3)=C2C(=O)OCC)c2ccccc21 (centres unmarked)	0	0	0
COc1cccc(Nc2c3c(nc4ccccc24)CCC3)c1	0	0	0
Clc1cccc(Nc2c3c(nc4ccccc24)CCC3)c1	0	0	0
CC12CCC(CN(CC(O)Cn3c4ccc(Br)cc4c4cc(Br)ccc43)C1)C2(C)C (centres unmarked)	1	0	1
Clc1ccccc1CN1CCc2sccc2C1	0	0	0
O=C(c1ccc(C2CCCN2)s1)N1CCc2c(nc[nH]c2=O)C1 (centres unmarked)	0	0	0
COc1ccc(NC2OC(=O)c3ccccc32)cc1 (centres unmarked)	0	0	0
CCc1nnc2c(Nc3cccc(C)c3)nc3ccccc3n12	0	0	0
CCOc1ccccc1[C@H]1C[C@@H](c2ccc(Br)cc2)Nc2nc(N)nn21	0	0	0
CCNC(=O)N1CCC(NCc2c(C)cc(C)c(CO)c2C)CC1	0	0	0
CN(CCc1ccccn1)C(=O)[C@@H]1C[C@@H](NC(=O)c2cccc(F)c2)CN1	0	0	0
CN(Cc1ccccc1)C(=O)c1ccc(CNc2c(N3CCCC3)c(=O)c2=O)cc1	0	0	-
CCC1=C(c2ccc(OC)cc2)CCC(C(=O)O)C1C (centres unmarked)	0	0	0
Cc1nc(N)ncc1-c1nc(N2CCOCC2)c2sc(C(C)(C)O)cc2n1	0	0	0
N#Cc1ccc(C(c2ccc(C#N)cc2)n2cncn2)cc1	0	0	0
O=C(CN1CCCCCC1)OCCNC1=NS(=O)(=O)c2ccccc21	0	0	0
Cc1cccc(-n2c(S)nnc2-c2sc3ncccc3c2N)c1C	1	1	0
CCNc1nc(C)cc(N2CCN(S(=O)(=O)c3ccc(Oc4ccccc4)cc3)CC2)n1	0	0	-
C[C@]12CCC(=O)C(O)=C1CC[C@@H]1[C@@H]2CC[C@]2(C)C(=O)CC[C@@H]12	0	0	0
c1cc2c(c(NCc3ccncc3)c1)CCCC2	0	0	0
O=C(N[C@H]1COC[C@@H]1O)c1cccc(OC2CCN(Cc3ccncc3)CC2)c1	0	0	0
COc1ccc(CC(=O)N2CCC(C(O)Cc3ccccc3)CC2)c(OC)c1 (centres unmarked)	0	0	0
N#CC1=C(N)N(c2cccc(F)c2)C2=C(C(=O)OC2)C12C(=O)N(Cc1ccc(F)cc1)c1ccccc12 (centres unmarked)	0	0	0
Cc1nn2c(N)c(C#N)cnc2c1-c1ccc(Br)cc1	0	0	0
NCc1cc(-c2ccccc2)on1	0	0	0
COc1ccc(C)cc1NC(c1ccccc1)c1nnc(-c2ccccc2)o1 (centres unmarked)	0	0	0
CCNC(=O)[C@@H]1C[C@@H](N)CN1Cc1cccn1-c1ncccn1	0	0	0
O=C(CNCc1ccco1)N1c2ccccc2Sc2ccccc21	0	0	0
Cn1c(C(=O)c2ccncc2)cc2ccccc21	0	0	0
N#Cc1ccc(Nc2ccccc2)c(N)c1	0	0	0
CC(C)Cc1cc(C(=O)NCCc2nnc3n2CCNCC3)[nH]n1	0	0	0
CN1CCCN(C[C@H]2C[C@H](CO)CN(C(=O)c3nnc4n3CCCC4)C2)CC1	0	0	0
Cc1cn2cc(C(=O)N(C)CCO)cc(N[C@@H]3CCOc4cccc(C)c43)c2n1	0	0	0
O=C1c2ccccc2S(=O)(=O)N1CC(O)Cn1ccc2ccccc21 (centres unmarked)	0	0	0
CC(C)COc1ccc(-c2nn(-c3ccccc3)cc2CO)cc1	0	0	0
COC(=O)Nc1ccc(-c2nc(N3CCOCC3)c3cnn(C4CCN(C(=O)OC)CC4)c3n2)cc1	0	0	0
CCc1cccc(Nc2nc3ccccc3c3nncn23)c1	0	0	0
CN1CCCN(C[C@@H]2CN(Cc3cnc(N4CCCC4)s3)C[C@@H]2CO)CC1	0	0	0
CCOC(=O)c1sc2nc3c(cc2c1N)COC(C)(C)C3	0	0	0
O=C1CCc2cc(OCCCCc3nnnn3C3CCCCC3)ccc2N1	0	0	0
CCOc1ccc(C2C(C#N)=C(N)OC3=C2S(=O)(=O)N(Cc2ccccc2)c2ccccc23)cc1 (centres unmarked)	0	0	-
CCC1(CO)CCCN(Cc2nc(C(N)=O)no2)C1 (centres unmarked)	0	0	0
COc1ncccc1C(=O)N1CC[C@H](N2CCN(C)CC2)[C@H](CCCO)C1	0	0	0
CN1CCN(c2cc(N3CCCC4(CN(C)C(=O)O4)C3)nc(N)n2)CC1 (centres unmarked)	0	0	0
CCc1nn2c(NCCN3CCOCC3)cc(C)nc2c1-c1ccccc1	0	0	-
CCn1c(CN2CCC3(CC2)Nc2ccccc2NC3=O)nc2ccccc21	0	0	0
c1ccc(-c2n[nH]cc2CNc2ncnc3c2CCNCC3)cc1	0	0	0
COc1cccc(CNC2=NS(=O)(=O)C(c3ccc(C)cc3)=C2C)c1OC	0	0	-
O=C1CC(NCCC2=CCCCC2)C(=O)N1c1cccc(Cl)c1Cl (centres unmarked)	0	0	0
CCn1c(CC2CCNCC2)nn(Cc2nc(-c3ccccc3)no2)c1=O	0	0	0
COc1ccc(NC(=O)c2sc3nc(C)cc(C)c3c2N)cc1Cl	0	0	0
FC(F)(F)c1ccc(C=Cc2nc(COc3ccc(CCCCn4ccnn4)cc3)co2)cc1	0	0	0

From ROBIN, a set of small-molecule microarray screens (doi:10.1002/anie.202211358).